# Reference: PubChem BioAssay AID296 (DTP/NCI, 2004)
# The list is a part of this screen's results and no random one: it is rich in T/C values a quarter to a half above the control, in often repeated tests (any T/C) and in doses without a T/C. Other doses and runs of a compound stand elsewhere. T/C gives the treated animals as a percentage of the vehicle group. Schedules are NCI's codes, read here as Q, the interval in days (D) or hours (H), X, the number of doses. Some molecules as drawn cover several salts, stereoisomers or complexes of the source; a dose is that of the sample tested. Some entries hold several experiments; the values are given in rising order. Some T/C values carry the count of animals alive at the toxicity check (mostly the fifth day); where none is given, no animal had died by that day. Some doses have a count of surviving animals in place of a T/C: the source holds a T/C of zero for them, seemingly a mark for toxic or unscored doses. Counts of survivors are from the toxicity check (mostly the fifth day) where no day follows; animals may have died later. *1 amine or outer side, *2 acyl side, *3 side chain or, on linkers, in order; H or OH if unused. Where a SMILES comes first, the peptide text is derived from it. [ ]: non-standard residue; d: D form. The star is where a group is joined. X2 = CCC(=O)CC1CC(C)CC(C(=O)[*:2])N1[*:1]; X1 = CCCCCCCCC(C)C(=O)*; Aib = CC(C)(N)C(=O)O; X3 = CC(CN(C)CCO)N*
# Tested on: MX-1 breast xenograft, nude mice, tumor weight T/C
# Test: NCI In Vivo Anticancer Drug Screen. Data for tumor model Human Mammary Carcinoma MX-1 Xenograft (intrarenal inoculation) in NU/NU Swiss (nude) mice
# Conditions: T/C endpoint: mean tumor weight change, higher T/C = larger tumour; for T/C: evaluated on day 11
# Method in brief: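 Read-out: treated (T) over vehicle control (C) ratio of survival or tumor size. Dosing in animals carrying the transplanted tumor.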
# [1] = dose: 150.0 mg/kg/injection, schedule: Q04DX003 (ip), vehicle: suspension in saline
# [2] = dose: 1200.0 mg/kg/injection, schedule: Q04DX003 (ip), vehicle: suspension in saline
# [3] = dose: 100.0 mg/kg/injection, schedule: Q04DX003 (sc), vehicle: saline
# [4] = dose: 1200.0 mg/kg/injection, schedule: Q04DX003 (sc), vehicle: saline with Tween-80
# [5] = dose: 800.0 mg/kg/injection, schedule: Q01DX010 (sc), vehicle: saline
# [6] = dose: 100.0 mg/kg/injection, schedule: Q01DX010 (sc), vehicle: Klucel (hydroxypropylcellulose) (HPC)
smiles,measurement,setting,value
CC(=O)/C(=C\c1ccc(Cl)c(Cl)c1)C(=O)CCN(C)C,T/C,"dose: 12.5 mg/kg/injection, schedule: Q04DX003 (ip), vehicle: saline",138 % of control
same,survivor count,[1],0 of 6 on day 11
same,survivor count,"dose: 300.0 mg/kg/injection, schedule: Q04DX003 (ip), vehicle: suspension in saline",0 of 6 on day 11
same,survivor count,"dose: 600.0 mg/kg/injection, schedule: Q04DX003 (ip), vehicle: suspension in saline",0 of 6 on day 11
same,survivor count,[2],0 of 6 on day 11
COc1ccc(C(=O)C(CN(C)C)CN(C)C)cc1,survivor count,[3],0 of 6 on day 11
NC(=O)SCC(N)C(=O)O (centres undefined),survivor count,"dose: 1350.0 mg/kg/injection, schedule: Q04DX003 (sc), vehicle: suspension in saline",0 of 6 on day 11
same,survivor count,"dose: 1800.0 mg/kg/injection, schedule: Q04DX003 (sc), vehicle: suspension in saline",0 of 6 on day 11
CC(=O)O[C@H]1C(=O)[C@@]2(C)[C@H]([C@H](OC(=O)c3ccccc3)[C@]3(O)C[C@H](OC(=O)[C@H](O)[C@@H](NC(=O)c4ccccc4)c4ccccc4)C(C)=C1C3(C)C)[C@]1(OC(C)=O)CO[C@@H]1C[C@@H]2O,survivor count,"dose: 200.0 mg/kg/injection, schedule: Q01DX010 (sc), vehicle: Klucel (hydroxypropylcellulose) (HPC)",0 of 3 on day 11
same,survivor count,"dose: 400.0 mg/kg/injection, schedule: Q01DX010 (sc), vehicle: Klucel (hydroxypropylcellulose) (HPC)",0 of 3 on day 11 and 1 of 3 on day 11
CCCCCCCCC(C)C(=O)N1CCCC1C(=O)N1C(CC(=O)CC)CC(C)CC1C(=O)NC(C)C(=O)NC(C)(C)C(=O)NC(C)(C)C(=O)NC(C(=O)NC(C)C(=O)NC(C)(C)C(=O)NC(C)(C)C(=O)NC(C)CN(C)CCO)C(C)CC (centres undefined) (X1-P[X2]A[Aib][Aib]IA[Aib][Aib]-X3; configuration not given here),T/C,"dose: 5.0 mg/kg/injection, schedule: Q04DX003 (sc), vehicle: Klucel (hydroxypropylcellulose) (HPC)",144 % of control
same,survivor count,"dose: 10.0 mg/kg/injection, schedule: Q04DX003 (sc), vehicle: Klucel (hydroxypropylcellulose) (HPC)",0 of 6 on day 11
C1CN(P2(N3CC3)=NP(N3CC3)(N3CC3)=NP(N3CC3)(N3CC3)=N2)CCO1 (centres undefined),survivor count,[3],0 of 6 on day 11 and 1 of 6 on day 11
same,survivor count,"dose: 200.0 mg/kg/injection, schedule: Q04DX003 (sc), vehicle: saline",0 of 6 on day 11
same,survivor count,"dose: 400.0 mg/kg/injection, schedule: Q04DX003 (sc), vehicle: saline",0 of 6 on day 11
COc1cc(NCc2ccc3nc(N)nc(N)c3c2C)cc(OC)c1OC,T/C,"dose: 2.5 mg/kg/injection, schedule: Q01DX010 (sc), vehicle: sodium bicarbonate",128 and 131 % of control
same,survivor count,"dose: 10.0 mg/kg/injection, schedule: Q01DX010 (sc), vehicle: sodium bicarbonate",1 of 3 on day 11
same,survivor count,"dose: 20.0 mg/kg/injection, schedule: Q01DX010 (sc), vehicle: sodium bicarbonate",0 of 3 on day 11
same,survivor count,"dose: 600.0 mg/kg/injection, schedule: Q04DX003 (sc), vehicle: water",0 of 6 on day 15
C[Si](C)(CCl)N[Si](C)(C)CCl,survivor count,[4],3 of 6 on day 11
same,survivor count,"dose: 2400.0 mg/kg/injection, schedule: Q04DX003 (sc), vehicle: saline with Tween-80",0 of 6 on day 11
C[n+]1c(/C=C\C=C\N2CCCCC2)sc2ccccc21,survivor count,"dose: 3.0 mg/kg/injection, schedule: Q04DX003 (sc), vehicle: Klucel (hydroxypropylcellulose) (HPC)",3 of 6 on day 11
same,survivor count,"dose: 6.0 mg/kg/injection, schedule: Q04DX003 (sc), vehicle: Klucel (hydroxypropylcellulose) (HPC)",0 of 6 on day 11
CNNCc1ccc(C(=O)NC(C)C)cc1,survivor count,"dose: 400.0 mg/kg/injection, schedule: Q01DX010 (sc), vehicle: saline",1 of 3 on day 11
same,survivor count,[5],0 of 3 on day 11 and 1 of 3 on day 11
N/C=N/O,survivor count,[5],0 of 3 on day 11
O=C(O)CCCc1ccc(N(CCCl)CCCl)cc1,survivor count,"dose: 16.0 mg/kg/injection, schedule: Q01DX010 (sc), vehicle: saline with Tween-80",0 of 3 on day 11
same,survivor count,"dose: 32.0 mg/kg/injection, schedule: Q01DX010 (sc), vehicle: saline with Tween-80",0 of 3 on day 11
COC1/C=C\C=C(/C)C(=O)NC2=CC(=O)C=C(C2=O)C(OC)C(C)CC(OC)C(OC)C(C)/C=C(/C)C1OC(N)=O (centres undefined),survivor count,"dose: 18.0 mg/kg/injection, schedule: Q04DX003 (sc), vehicle: Klucel (hydroxypropylcellulose) (HPC)",1 of 6 on day 11
C=C1N(C)c2ccccc2C1(C)C,survivor count,"dose: 100.0 mg/kg/injection, schedule: Q04DX003 (sc), vehicle: saline with Tween-80",0 of 6 on day 11
same,survivor count,"dose: 200.0 mg/kg/injection, schedule: Q04DX003 (sc), vehicle: saline with Tween-80",0 of 6 on day 11
OCCN1CCN(CC/C=C2/c3ccccc3Sc3ccc(C(F)(F)F)cc32)CC1,survivor count,"dose: 480.0 mg/kg/injection, schedule: Q04DX003 (sc), vehicle: saline",0 of 6 on day 11
same,survivor count,"dose: 960.0 mg/kg/injection, schedule: Q04DX003 (sc), vehicle: saline",0 of 6 on day 11
N[C@@H](Cc1c[nH]c2ccccc12)C(=O)Nc1nncs1,T/C,[1],128 % of control [5 of 6 alive on day 11]
same,survivor count,[2],0 of 6 on day 11
CCN1C=C/C(=C\C=C/c2cc[n+](CC)c3ccccc23)c2ccccc21,survivor count,"dose: 2.0 mg/kg/injection, schedule: Q01DX010 (sc), vehicle: saline",1 of 3 on day 11
Oc1cc2c3c(c1)c1cc4c(cc1c[n+]3CC2)OCO4,survivor count,"dose: 800.0 mg/kg/injection, schedule: Q04DX003 (sc), vehicle: water",2 of 5 on day 11
Cc1cc(O)c(N=Nc2ccc(C(=O)O)cc2)cc1C,T/C,[4],140 % of control
CC(=O)[O][Pb]([O]C(C)=O)([c]1ccccc1)[c]1ccccc1,T/C,[6],125 % of control
Nc1ncn(C2CC(O)C(CO)O2)c(=O)n1 (centres undefined),survivor count,"dose: 0.4 mg/kg/injection, schedule: Q01DX010 (sc), vehicle: saline",0 of 3 on day 11
same,survivor count,"dose: 0.8 mg/kg/injection, schedule: Q01DX010 (sc), vehicle: saline",0 of 3 on day 11
same,survivor count,"dose: 1.6 mg/kg/injection, schedule: Q01DX010 (sc), vehicle: saline",0 of 3 on day 11
C=C1c2cccc(O)c2C(O)=C2C(=O)[C@]3(O)C(O)=C(C(N)=O)C(=O)[C@@H](N(C)C)[C@@H]3[C@@H](O)[C@H]12,survivor count,"dose: 600.0 mg/kg/injection, schedule: Q04DX003 (ip), vehicle: Klucel (hydroxypropylcellulose) (HPC)",1 of 6 on day 11
CC1OC(=O)C(C(C)C)NC(=O)C(C(C)C)OC(=O)C(C(C)C)NC(=O)C(C)OC(=O)C(C(C)C)NC(=O)C(C(C)C)OC(=O)C(C(C)C)NC(=O)C(C)OC(=O)C(C(C)C)NC(=O)C(C(C)C)OC(=O)C(C(C)C)NC1=O (centres undefined),T/C,"dose: 5.0 mg/kg/injection, schedule: Q01DX010 (sc), vehicle: saline with Tween-80",137 % of control
same,survivor count,"dose: 40.0 mg/kg/injection, schedule: Q01DX010 (sc), vehicle: saline with Tween-80",0 of 3 on day 11
CN(C)CCCNc1c2ccccc2nc2cccc([N+](=O)[O-])c12,survivor count,"dose: 0.75 mg/kg/injection, schedule: Q04DX003 (sc), vehicle: saline",0 of 6 on day 11
same,survivor count,"dose: 1.5 mg/kg/injection, schedule: Q04DX003 (sc), vehicle: saline",0 of 6 on day 11
same,survivor count,"dose: 3.0 mg/kg/injection, schedule: Q04DX003 (sc), vehicle: saline",0 of 6 on day 11
CCCC(=O)OCc1cc(=O)n(C)c2c3c4c(cc12)c(C)cc(=O)n4CO3,T/C,[6],137 % of control
